From the supplement of paper PMC10727501
The list shows a part of the results. Repeats in this data set agree poorly, so a single value says little.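 Free-swimming zebrafish larvae were assessed for O-bend response probability to dark flashes (naive: first five; training: remaining flashes across four 60-flash blocks; test: later 60-flash block) and for OMR turning toward alternating leftward/rightward LED motion. Six treated larvae were compared against sixty 0.1% DMSO controls; hits required |SSMD|≥2.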

Columns and labels:
Conditions in all cases: 10 µM; pre-incubation: 30-90 min
[1] = system: Danio rerio larvae (5 dpf, TLF); test: OMR-Perf (SSMD vs DMSO vehicle); higher = higher than vehicle (e.g. higher dark-flash O-bend response probability, or better optomotor performance)
[2] = system: Danio rerio larvae (5 dpf, TLF); test: Prob-Test (SSMD vs DMSO vehicle); higher = higher than vehicle (e.g. higher dark-flash O-bend response probability, or better optomotor performance)
[3] = system: Danio rerio larvae (5 dpf, TLF); test: Prob-Naive (SSMD vs DMSO vehicle); higher = higher than vehicle (e.g. higher dark-flash O-bend response probability, or better optomotor performance)
[4] = system: Danio rerio larvae (5 dpf, TLF); test: Prob-Train (SSMD vs DMSO vehicle); higher = higher than vehicle (e.g. higher dark-flash O-bend response probability, or better optomotor performance)

SMILES	OMR-Perf [1]	Prob-Test [2]	Prob-Naive [3]	Prob-Train [4]
Cc1nc2ccc(CN(C)c3ccc(C(=O)N[C@@H](CCC(=O)O)C(=O)O)s3)cc2c(=O)[nH]1 [Raltitrexed]	-0.297	-0.57	0.0184	-0.808
CC12CC3CC(C)(C1)CC(N)(C3)C2.Cl [Memantine HCl]	-0.143	0.0498	0.357	0.149
COc1cc(N2CCN(C)CC2)ccc1Nc1nccc(-c2cn(C)c3cnccc23)n1	-0.481	0.155	0.227	0.648
COc1cc(/C=C/C(=O)O)ccc1O [Ferulic Acid]	-0.0902	0.16	-0.695	0.145
CC(C)(Oc1ccc(CCNC(=O)c2ccc(Cl)cc2)cc1)C(=O)O [Bezafibrate]	0.495	0.133	-0.269	0.0636
CC(C)(C)NCC(O)c1ccc(O)c(CO)c1.O=S(=O)(O)O (stereo not given) [Salbutamol sulfate (Albuterol)]	-0.405	0.281	-0.213	0.132
Cl.O=C(c1ccc(OCCN2CCCCC2)cc1)c1c(-c2ccc(O)cc2)sc2cc(O)ccc12 [Raloxifene HCl]	-0.379	-0.204	-0.493	-0.395
NCCS(=O)(=O)O [Taurine]	-0.564	-0.528	-0.0745	-0.311
Cl.O=C(Nc1ccccc1)OCC(CN1CCCCC1)OC(=O)Nc1ccccc1 (stereo not given) [Diperodon HCl]	0.225	0.29	-0.00172	0.113
CN(N=O)C(=O)N[C@@H]1[C@@H](O)[C@H](O)[C@@H](CO)O[C@@H]1O [Streptozotocin (STZ)]	-0.298	-0.33	-0.562	-0.419
Cc1ccc(Cl)cc1N(CC(=O)Nc1c(F)cccc1F)S(C)(=O)=O	0.0676	0.209	0.448	-0.0363
C[C@@H]1C/C=C/C=C/C=C/C=C/[C@H](O[C@@H]2O[C@H](C)[C@@H](O)[C@H](N)[C@H]2O)C[C@@H]2O[C@](O)(C[C@@H](O)C[C@H]3O[C@@H]3/C=C/C(=O)O1)C[C@H](O)[C@H]2C(=O)O [Natamycin]	-0.139	0.769	0.255	0.469
COc1ccccc1OCC(O)COC(N)=O (stereo not given) [Methocarbamol]	0.014	-0.588	-0.112	-0.0977
COc1cc[nH]c2ncc(C(=O)C(=O)N3CCN(C(=O)c4ccccc4)C[C@H]3C)c1-2	-0.146	0.522	-0.263	0.946
O=C(c1ccc(F)cc1)C1CCN(CCn2c(=O)[nH]c3ccccc3c2=O)CC1 [Ketanserin]	-0.425	0.128	0.831	0.416
CO[C@H]1C[C@H]2CC[C@@H](C)[C@@](O)(O2)C(=O)C(=O)N2CCCC[C@H]2C(=O)O[C@H]([C@H](C)C[C@@H]2CC[C@H](OC(=O)C(C)(CO)CO)[C@H](OC)C2)CC(=O)[C@H](C)/C=C(\C)[C@@H](O)[C@@H](OC)C(=O)[C@H](C)C[C@H](C)/C=C/C=C/C=C/1C	-0.383	0.318	-0.229	-0.247
Cc1ccc(NC(=O)c2cccc(C(C)(C)C#N)c2)cc1Nc1ccc2ncn(C)c(=O)c2c1	-0.783	0.077	0.289	0.141
COc1cc2c(cc1NS(=O)(=O)c1ccc(Br)cc1C)n(C)c(=O)n2C	0.186	-0.463	0	-0.686
NCCCC(O)(P(=O)(O)O)P(=O)(O)O.O.O.O.[Na] [Alendronate (Fosamax)]	0.24	0.0152	-0.833	0.241
CCCCCCCCCCOc1cc2c(O)c(C(=O)OCC)cnc2cc1OCC [Decoquinate]	0.366	0.43	0.153	0.921
Nc1nc(NCCNc2ncc(-n3ccnc3)c(-c3ccc(Cl)cc3Cl)n2)ccc1[N+](=O)[O-]	-0.771	-0.452	-0.13	-0.56
CN(C)CCCOc1nn(Cc2ccccc2)c2ccccc12.Cl [Benzydamine HCl]	-0.374	0.634	0.4	0.503
COC(=O)[C@@H]1[C@H]2C[C@H]3c4[nH]c5ccccc5c4CCN3C[C@@H]2CC[C@@H]1O.Cl [Yohimbine HCl]	-0.357	-0.736	0.516	0.321
CCCC(C(=O)OCCN(CC)CC)(c1ccccc1)c1ccccc1.Cl [Proadifen HCl]	-0.77	-1.41	0.61	0.127
COC(=O)C1=CO[C@H](O)[C@@H]2C(CO)=CC[C@H]12 [Genipin]	-0.439	0.103	0.516	-0.0213

Given comma-delimited: part of the list above
SMILES,OMR-Perf [1],Prob-Test [2],Prob-Naive [3],Prob-Train [4]
CC(C)(C)NCC(O)c1ccc(O)c(CO)c1.O=S(=O)(O)O (stereo not given) [Salbutamol sulfate (Albuterol)],-0.405,0.281,-0.213,0.132
Cl.O=C(c1ccc(OCCN2CCCCC2)cc1)c1c(-c2ccc(O)cc2)sc2cc(O)ccc12 [Raloxifene HCl],-0.379,-0.204,-0.493,-0.395
NCCS(=O)(=O)O [Taurine],-0.564,-0.528,-0.0745,-0.311

Next entries:

SMILES	OMR-Perf [1]	Prob-Test [2]	Prob-Naive [3]	Prob-Train [4]
Nc1nc(N)nc(-c2cc(Cl)ccc2Cl)n1 [Irsogladine]	-0.358	-0.119	0.759	-0.371
Cc1cccc(-c2n[nH]cc2-c2ccc3ncccc3n2)n1	-0.279	-0.531	-0.29	0.0618
O=C(O)c1cc(-c2ccccc2)nc2ccccc12 [Cinchophen]	-0.451	-0.0183	-0.105	0.0346
CNCC[C@H](Oc1cccc2ccccc12)c1cccs1.Cl [Duloxetine HCl]	-0.0601	-1.07	-0.861	-0.867
CCOc1nc2cccc(C(=O)OCc3oc(=O)oc3C)c2n1Cc1ccc(-c2ccccc2-c2nc(=O)o[nH]2)cc1 [Azilsartan Medoxomil]	-0.263	0.228	-0.568	-0.156
Cc1ccc(-n2nc(C(C)(C)C)cc2NC(=O)Nc2ccc(OCCN3CCOCC3)c3ccccc23)cc1 [BIRB 796 (Doramapimod)]	-0.241	-0.775	-0.212	-0.605
Cc1cccn2c(=O)c(-c3nnn[n-]3)cnc12.[K+]	0.0224	0.0662	-0.389	-0.315
N#C[C@@H]1C[C@@H]2C[C@H]2N1C(=O)[C@@H](N)C12CC3CC(CC(O)(C3)C1)C2 [Saxagliptin]	-0.373	0.31	0.0343	-0.0638
O=C1C(=O)N(Cc2ccc(Cl)c(Cl)c2)c2ccccc21 [Apoptosis Activator 2]	0.0373	0.182	0.489	0.129
COc1ccc(-c2coc3cc(O)cc(O)c3c2=O)cc1 [Biochanin A]	-0.929	-1.79	-2.17	-2.76
CC(C)(C)/[N+]([O-])=C/c1ccc(S(=O)(=O)[O-])cc1S(=O)(=O)[O-].[Na+].[Na+]	-0.0186	0.392	-0.101	0.602
CC(C)c1nc(N(C)S(C)(=O)=O)nc(-c2ccc(F)cc2)c1C=C[C@@H](O)C[C@@H](O)CC(=O)[O-].CC(C)c1nc(N(C)S(C)(=O)=O)nc(-c2ccc(F)cc2)c1C=C[C@@H](O)C[C@@H](O)CC(=O)[O-].[Ca+2] [Rosuvastatin Calcium]	-0.213	-0.318	-0.0555	0.0689
CN(c1ncccc1CNc1nc(Nc2ccc3c(c2)CC(=O)N3)ncc1C(F)(F)F)S(C)(=O)=O	-0.865	0.0143	-0.694	-0.162
CS(=O)(=O)CCNCc1ccc(-c2ccc3ncnc(Nc4ccc(OCc5cccc(F)c5)c(Cl)c4)c3c2)o1.Cc1ccc(S(=O)(=O)O)cc1.Cc1ccc(S(=O)(=O)O)cc1	-0.724	-0.748	-0.935	-1.72
CN[C@@H]1CC[C@@H](c2ccc(Cl)c(Cl)c2)c2ccccc21.Cl [Sertraline HCl]	-0.672	-1.58	0.389	-1.19
C[C@H](Cc1cc2c(c(C(N)=O)c1)N(CCCO)CC2)NCCOc1ccccc1OCC(F)(F)F [Silodosin]	-0.288	-0.106	0.227	0.0881
CCC(C)(C)c1ccc(CC(C)CN2C[C@@H](C)O[C@@H](C)C2)cc1.Cl (stereo not given in full) [Amorolfine HCl]	-1.3	-1.46	-0.84	-2.42
CC1(C)CCC[C@@]2(C)[C@H]3CC(=O)O[C@]3(C)CC[C@@H]12 [Sclareolide]	-0.94	-1.13	-1.35	-2.46
Nc1nc(NC2CC2)c2ncn([C@H]3C=C[C@@H](CO)C3)c2n1.Nc1nc(NC2CC2)c2ncn([C@H]3C=C[C@@H](CO)C3)c2n1.O=S(=O)(O)O [Abacavir sulfate]	-0.316	-0.47	0.549	-0.149
C[C@H](O)[C@@H]1C(=O)N2C(C(=O)O)=C(S[C@@H]3CN[C@H](CNS(N)(=O)=O)C3)[C@@H](C)[C@@H]12.O [Doripenem Hydrate]	-0.382	-0.0444	0.322	-0.0491
CN(C)c1nc(N(C)C)nc(N(C)C)n1 [Altretamine]	0.111	0.18	-0.424	0.131
COc1cc(Nc2ncc(F)c(Nc3ccc4c(n3)N(COP(=O)(O)O)C(=O)C(C)(C)O4)n2)cc(OC)c1OC [Fostamatinib (R788)]	-0.397	-0.216	0.285	-0.215
O=C(O)CCNC(=O)c1ccccc1 [Betamipron]	-0.49	0.602	-0.0511	0.417
CCN1CCN(Cc2ccc(-c3cc4c(N[C@H](C)c5ccccc5)ncnc4[nH]3)cc2)CC1	-0.182	-0.0468	-0.0535	-0.36
CNC[C@H](O)c1ccc(O)c(O)c1.Cl [Epinephrine HCl]	-0.0773	-0.188	-0.276	-0.591
